Results on 1 sequence are retold here after PMC3792344.

One data set deals with MinD (Escherichia coli) (UniProt P0AEZ3). Put plainly: SPR. The following applies: apparent Kd from kon/koff; SPR: buffer with 5% glycerol, 5 mM MgCl2; recombinant protein; protein details: His; label: biotin (on F strand).
Data set [1] concerns the target MinDΔ10 (Escherichia coli) (UniProt P0AEZ3). Put plainly: SPR. To be noted: SPR: buffer with 5% glycerol, 5 mM MgCl2; recombinant protein; protein details: His; label: biotin (on F strand).

For at least one entry, the source does not settle the construct or the ends of the probe. For some assays here: The comparison behind a weaker result is the experiment's own reference, which may not be listed here. For some assays here: At least one verdict rests on a figure or table, not on a statement of the authors.

With “GAATCAGCGCCATTTATCACAGAATAGACT (double strand) [P1-prom-1-Biotin SPR duplex]”, the Kd in the data set with MinD (Escherichia coli) came to 600 nM. Besides, the binding result in data set [1] is “binds more weakly”.
